Measured values reported in patent US20130065830A1.

Target: GFRα1
Test: condition: 25 µL GFRα1 (1 mg/mL) with 40 µg bDNSP-11; pull-down with streptavidin magnetic beads, flow-through and elution analysed (FIG. 13)

binding: no binding
Binder: PPEAPAEDRSL (N-terminal biotin; C-terminal amide) [biotinylated DNSP-11]

These are yes or no findings as the source states them, for the method shown.
